Measured values reported in US20210222166.

Sequences of proteins named here, by UniProt entry; tags and fusion partners are left off. A change or cut given only in a name is not applied to a line headed by its entry.
UniProt Q04609: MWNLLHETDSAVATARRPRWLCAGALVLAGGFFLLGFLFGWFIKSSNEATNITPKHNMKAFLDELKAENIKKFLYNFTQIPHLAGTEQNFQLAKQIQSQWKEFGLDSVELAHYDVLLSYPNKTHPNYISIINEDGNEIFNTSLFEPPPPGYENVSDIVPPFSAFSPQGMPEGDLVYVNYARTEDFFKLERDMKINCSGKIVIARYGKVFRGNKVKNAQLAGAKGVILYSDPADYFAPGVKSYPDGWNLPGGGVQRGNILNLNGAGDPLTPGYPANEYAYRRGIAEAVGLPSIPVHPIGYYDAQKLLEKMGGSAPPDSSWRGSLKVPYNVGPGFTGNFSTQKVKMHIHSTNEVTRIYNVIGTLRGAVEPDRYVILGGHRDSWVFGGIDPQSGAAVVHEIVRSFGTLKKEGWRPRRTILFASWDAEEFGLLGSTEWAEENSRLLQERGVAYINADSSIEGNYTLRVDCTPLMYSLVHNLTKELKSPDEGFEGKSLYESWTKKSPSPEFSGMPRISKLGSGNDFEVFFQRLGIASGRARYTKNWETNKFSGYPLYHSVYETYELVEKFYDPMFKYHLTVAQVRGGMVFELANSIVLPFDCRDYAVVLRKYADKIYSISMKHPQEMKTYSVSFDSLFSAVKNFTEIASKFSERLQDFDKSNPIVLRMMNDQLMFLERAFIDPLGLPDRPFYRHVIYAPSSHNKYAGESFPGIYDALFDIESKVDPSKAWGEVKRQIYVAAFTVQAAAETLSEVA

Target: PSMA (prostate specific membrane antigen) (UniProt Q04609)
Test: flow cytometry
Conditions: 2'-OMe with 4 LNA per strand, 5' amino C6; background uptake in LNCaP cells; protein on the cell surface; protein details: endogenous on LNCaP cells; label: …; synthetic backbone

Sequence: CCGTCCTGAGCC / CACAGTGGACGG / GGCTCACCGATC / GATCGGACTGTG [HJ (no aptamer)]
- binding result: no binding

Results from cells or extracts need not show a direct contact. No signal at the amounts used counts as a negative.
